Here are results for two molecules from paper PMC5435352.

No constants are given. Whether binding was seen depends on the method and setting. In cells and extracts the contact can be indirect. These calls come from enrichment with a bait or labelling near it, and not all partners need be listed.

The target of this assay is EVA71 3D viral polymerase (enterovirus A71 (strain 4643/TW/98)). The experiment in a line: affinity purification with mass spectrometry; […]; 50 mM Tris-HCl pH 7.4, 150 mM NaCl, 1% Triton X-100), […].

B1: Interleukin enhancer binding factor 3 (protein, UniProt Q12906 1-894)
chain: MRPMRIFVNDDRHVMAKHSSVYPTQEELEAVQNMVSHTERALKAVSDWIDEQEKGSSEQAESDNMDVPPEDDSKEGAGEQKTEHMTRTLRGVMRVGLVAKGLLLKGDLDLELVLLCKEKPTTALLDKVADNLAIQLAAVTEDKYEILQSVDDAAIVIKNTKEPPLSLTIHLTSPVVREEMEKVLAGETLSVNDPPDVLDRQKCLAALASLRHAKWFQARANGLKSCVIVIRVLRDLCTRVPTWGPLRGWPLELLCEKSIGTANRPMGAGEALRRVLECLASGIVMPDGSGIYDPCEKEATDAIGHLDRQQREDITQSAQHALRLAAFGQLHKVLGMDPLPSKMPKKPKNENPVDYTVQIPPSTTYAITPMKRPMEEDGEEKSPSKKKKKIQKKEEKAEPPQAMNALMRLNQLKPGLQYKLVSQTGPVHAPIFTMSVEVDGNSFEASGPSKKTAKLHVAVKVLQDMGLPTGAEGRDSSKGEDSAEETEAKPAVVAPAPVVEAVSTPSAAFPSDATAEQGPILTKHGKNPVMELNEKRRGLKYELISETGGSHDKRFVMEVEVDGQKFQGAGSNKKVAKAYAALAALEKLFPDTPLALDANKKKRAPVPVRGGPKFAAKPHNPGFGMGGPMHNEVPPPPNLRGRGRGGSIRGRGRGRGFGGANHGGYMNAGAGYGSYGYGGNSATAGYSQFYSNGGHSGNASGGGGGGGGGSSGYGSYYQGDNYNSPVPPKHAGKKQPHGGQQKPSYGSGYQSHQGQQQSYNQSPYSNYGPPQGKQKGYNHGQGSYSYSNSYNSPGGGGGSDYNYESKFNYSGSGGRSGGNSYGSGGASYNPGSHGGYGGGSGGGSSYQGKQGGYSQSNYNSPGSGQNYSGPPSSYQSSQGGYGRNADHSMNYQYR
As to B1, the binding entry is listed as “binds”.

B2: Lamina-associated polypeptide 2, isoform alpha (protein, UniProt P42166 1-694)
chain: MPEFLEDPSVLTKDKLKSELVANNVTLPAGEQRKDVYVQLYLQHLTARNRPPLPAGTNSKGPPDFSSDEEREPTPVLGSGAAAAGRSRAAVGRKATKKTDKPRQEDKDDLDVTELTNEDLLDQLVKYGVNPGPIVGTTRKLYEKKLLKLREQGTESRSSTPLPTISSSAENTRQNGSNDSDRYSDNEEGKKKEHKKVKSTRDIVPFSELGTTPSGGGFFQGISFPEISTRPPLGSTELQAAKKVHTSKGDLPREPLVATNLPGRGQLQKLASERNLFISCKSSHDRCLEKSSSSSSQPEHSAMLVSTAASPSLIKETTTGYYKDIVENICGREKSGIQPLCPERSHISDQSPLSSKRKALEESESSQLISPPLAQAIRDYVNSLLVQGGVGSLPGTSNSMPPLDVENIQKRIDQSKFQETEFLSPPRKVPRLSEKSVEERDSGSFVAFQNIPGSELMSSFAKTVVSHSLTTLGLEVAKQSQHDKIDASELSFPFHESILKVIEEEWQQVDRQLPSLACKYPVSSREATQILSVPKVDDEILGFISEATPLGGIQAASTESCNQQLDLALCRAYEAAASALQIATHTAFVAKAMQADISQAAQILSSDPSRTHQALGILSKTYDAASYICEAAFDEVKMAAHTMGNATVGRRYLWLKDCKINLASKNKLASTPFKGGTLFGGEVCKVIKKRGNKH
Turning to B2, the binding entry is “binds”.
